PubChem BioAssay AID720504 (National Center for Advancing Translational Sciences (NCATS), 2013)
About 10,000 (2.8%) of roughly 360,000 compounds were called active. The inconclusive results got no clear call from the source; some entries with a clear call stand among them for comparison. Calls come from the whole dose curve; as a rule, active = well fitted inhibition curve with a large enough effect; inconclusive = small, poorly fitted or top-dose-only effect; inactive = flat fitted curve, though single readings scatter. Potencies of inconclusive entries are doubtful fits and often do not repeat.

The chains behind the UniProt entries cited, without tags or fusion partners.
UniProt P53350, whole entry, looked up: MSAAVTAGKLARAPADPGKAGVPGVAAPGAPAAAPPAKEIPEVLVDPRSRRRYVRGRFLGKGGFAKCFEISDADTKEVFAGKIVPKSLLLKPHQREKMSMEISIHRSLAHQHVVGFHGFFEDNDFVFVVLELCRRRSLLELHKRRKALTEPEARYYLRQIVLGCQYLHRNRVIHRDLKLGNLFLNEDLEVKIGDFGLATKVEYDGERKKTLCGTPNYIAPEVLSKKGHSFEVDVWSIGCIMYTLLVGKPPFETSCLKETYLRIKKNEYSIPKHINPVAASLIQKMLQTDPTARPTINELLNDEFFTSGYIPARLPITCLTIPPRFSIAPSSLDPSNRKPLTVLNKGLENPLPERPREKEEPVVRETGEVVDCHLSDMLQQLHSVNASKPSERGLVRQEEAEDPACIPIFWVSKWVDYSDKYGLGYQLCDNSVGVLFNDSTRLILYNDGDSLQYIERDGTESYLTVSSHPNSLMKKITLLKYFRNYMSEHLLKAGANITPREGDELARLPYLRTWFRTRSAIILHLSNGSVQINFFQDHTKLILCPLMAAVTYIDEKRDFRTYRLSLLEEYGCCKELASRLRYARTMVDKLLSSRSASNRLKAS

molecular target: Serine/threonine-protein kinase PLK1 (Homo sapiens) (UniProt P53350); experiment: qHTS for Inhibitors of PLK1-PDB (polo-like kinase 1 - polo-box domain): Primary Screen; conditions: Plk1 PBD binding of FITC phosphopeptide, fluorescence polarization; note: nearly all actives have a fitted effect of over 65% in size; for max response, negative = inhibition: series mostly up to about 57 µM
% is set by controls: 0 for no effect and ±100 for the full control effect; potency is the fitted concentration of half-maximal effect.

| Compound | max response, negative = inhibition | Potency |
| --- | --- | --- |
| Cc1nc2sc(C(c3cccs3)N3CCN(C(=O)c4ccco4)CC3)c(O)n2n1 (stereo unspecified) | inactive: 0.194% |  |
| O=C1CC2(CCN(C(=O)C(=O)c3c[nH]c4ccccc34)CC2)Oc2ccccc21 |  | inconclusive: 26.7 µM [inhibitor, single point] |
| O=C(CN1CCCc2ccccc21)Nc1ccccc1[N+](=O)[O-] |  | inconclusive: 23.8 µM [inhibitor, single point] |
| O=C(CSc1nnc(-c2ccco2)c(-c2ccco2)n1)Nc1ccccc1 |  | active: 18.9 µM |
| O=C(COc1ccccc1)NNc1nc2c(F)cccc2s1 |  | inconclusive: 37.7 µM [inhibitor, single point] |
| CCOC(=O)CSc1nn(C)c(=S)s1 |  | inconclusive: 26.7 µM [inhibitor, single point] |
| CCN(CC)S(=O)(=O)c1cccc(-c2nnc(-c3ccc(C)cc3)o2)c1 | inactive: -11.2% |  |
| COCC1CCN(Cc2nc(-c3cccs3)no2)C1 (stereo unspecified) |  | inconclusive: 23.8 µM [inhibitor, single point] |
| N#Cc1cc2c([nH]c1=S)CCCCCC2 |  | active: 26.7 µM |
| CS(=O)(=O)N1CCC(C(=O)Nc2ccc(Cl)c(C(F)(F)F)c2)CC1 |  | inconclusive: 37.7 µM [inhibitor, single point] |
| CC1=NOC(=O)/C1=C\c1ccc(-c2cc(Cl)ccc2Cl)o1 |  | active: 0.597 µM |
| COCCN(CCOC)Cc1c(O)ccc2c1O/C(=C\c1ccco1)C2=O |  | inconclusive: 29.9 µM [inhibitor, partial curve] |
| Cc1ccccc1CN1CCNC(=O)C1CC(=O)O (stereo unspecified) | inactive: -9.14% |  |
| CCS(=O)(=O)Nc1cc(-c2nc3cccnc3s2)ccc1C | inactive: -8.62% |  |
| COc1cc2c(cc1OC)CN(C(=O)c1cccc([N+](=O)[O-])c1)CC2 |  | active: 26.7 µM |
| C[C@H](NS(=O)(=O)c1ccccc1)C(=O)N1CCN(C(c2ccccc2)c2ccccc2)CC1 |  | inconclusive: 18.9 µM [inhibitor, partial curve] |
| CC(C)C[C@@H](CNCC(=O)[C@H](Cc1ccccc1)NC(=O)c1[nH]cnc1C(=O)N[C@@H](C)CN)NC(=O)c1nc[nH]c1C(=O)N[C@@H](CC(=O)O)C(=O)O | inactive: -7.77% |  |
| COc1ccc([N+](=O)[O-])cc1NS(=O)(=O)c1ccccc1 |  | inconclusive: 37.7 µM [inhibitor, single point] |
| COc1ccc2c(c1)OC/C(=C/c1cccs1)C2=O | inactive: -5.82% |  |
| CCCn1c2ccc(F)cc2c2nnc(SCCN3CCOCC3)nc21 |  | inconclusive: 18.9 µM [inhibitor, partial curve] |
| CCOC(=O)C1(C)CCN1C(=O)c1ccc(OC)cc1 (stereo unspecified) | inactive: -3.22% |  |
| C#CCOCCOCCOCCNc1nc(N2CCN(C(=O)CCCCCCCCCCNC(=O)[C@@H](CCSC)n3cc(CCO)nn3)CC2)nc(N2CCN(C(=O)CCCCCCCCCCNC(=O)[C@H](CCSC)n3cc(CCO)nn3)CC2)n1 | inactive: -2.4% |  |
| COc1ccc(S(=O)(=O)c2ccc(O)cc2)cc1 |  | inconclusive: 21.2 µM [inhibitor, single point] |

| Compound | max response, negative = inhibition | Potency |
| --- | --- | --- |
| O=c1c2c3c(sc2ncn1/N=C/c1ccncc1)CCCC3 |  | inconclusive: 23.8 µM [inhibitor, single point] |
| O=C(NCc1ccccc1)c1cccc2c(-c3ccc(F)c(F)c3)coc12 | inactive: -3.61% |  |
| O=C(CSCc1ccc(Cl)cc1)Nc1cccc(C(=O)Nc2ccccc2C(=O)O)c1 |  | inconclusive: 29.9 µM [inhibitor, single point] |
| C=CCOc1ccc(/C=C2/C(=O)ON=C2C)cc1OC |  | active: 2.38 µM |
| Cc1cc(O)c(NC(=O)c2ccco2)cc1C | inactive: -3.76% |  |
| O=C(CCN1CCCC1Cc1ccccc1)c1ccc2c(c1)OCCO2 (stereo unspecified) |  | active: 21.2 µM |
| COc1ccc(Cl)cc1S(=O)(=O)NC(C)c1cnn(-c2ccccn2)c1C (stereo unspecified) |  | inconclusive: 26.7 µM [inhibitor, partial curve] |
| COC(=O)c1[nH]c2ccccc2c1NC(=O)Oc1ccccc1 |  | inconclusive: 21.2 µM [inhibitor, partial curve] |
| O=c1c2ccccc2nnn1CSc1ccc2c(c1)OCCO2 |  | inconclusive: 21.2 µM [inhibitor, partial curve] |
| Oc1cc(CNCc2ccccc2)c(O)cc1CNCc1ccccc1 |  | inconclusive: 29.9 µM [inhibitor, single point] |
| COc1ccc(OC)c(NC(=O)c2nnn(Cc3ccc(Br)cc3F)c2N)c1 |  | inconclusive: 21.2 µM [inhibitor, partial curve] |
| CCN(C(=O)COC(=O)CCNS(=O)(=O)c1ccccc1F)c1c(N)n(Cc2ccccc2)c(=O)[nH]c1=O |  | inconclusive: 37.7 µM [inhibitor, single point] |
| CCN1CCN(c2cc(C)c3cc(NC(=S)N4CCN(c5ccc(F)cc5)CC4)ccc3n2)CC1 | inactive: 1.39% |  |
| O=C1NN(c2cccc(Br)c2)C(=O)/C1=C\c1ccccc1 |  | active: 1.5 µM |
| COc1ccc(C(=O)N2CCC(C(=O)N3CCN(c4ccccc4)CC3)CC2)cc1 | inactive: -4.17% |  |
| COc1cc2c(cc1OC)/C(=C/C(=O)c1cccc([N+](=O)[O-])c1)NCC2 |  | inconclusive: 26.7 µM [inhibitor, partial curve] |
| COc1ccc(-c2nnc(Nc3nc4c(OC)cccc4s3)o2)cc1 |  | inconclusive: 26.7 µM [inhibitor, partial curve] |
| OCCCN1CNC(=S)NC1 | inactive: 0% |  |
| CC(=O)Nc1ccccc1NC(=O)c1ccc(C)cc1C |  | inconclusive: 29.9 µM [inhibitor, partial curve] |
| CC(=O)c1ccc(S(=O)(=O)NCC(=O)N2CCN(C/C=C/c3ccccc3)CC2)cc1 |  | active: 26.7 µM |
| Cc1cccc(C)c1NC(=O)c1cc(S(=O)(=O)N2CCOCC2)ccc1F | inactive: -12.9% |  |
| Cc1cc2oc(=O)cc(-c3ccccc3)c2c(C)c1-c1ccc(N(C)C)cc1 | inactive: -10.6% |  |
| Cc1[nH]n(C(N)=S)c(=O)c1N=Nc1cc(-c2ccc(Br)cc2)[nH]n1 |  | inconclusive: 26.7 µM [inhibitor, single point] |

Three structures out of the list, ordered by number of heavy atoms, smallest number first:

| Compound | max response, negative = inhibition | Potency |
| --- | --- | --- |
| C=CCOc1ccc(/C=C2/C(=O)ON=C2C)cc1OC |  | active: 2.38 µM |
| O=C(CCN1CCCC1Cc1ccccc1)c1ccc2c(c1)OCCO2 (stereo unspecified) |  | active: 21.2 µM |
| CC(=O)c1ccc(S(=O)(=O)NCC(=O)N2CCN(C/C=C/c3ccccc3)CC2)cc1 |  | active: 26.7 µM |
